Results are given in words; binding and its absence hold for the method and conditions named. Binding seen in cells or lysates may run through a third protein. Some entries that bind do so weakly or less than the wild type.
Target: Histone deacetylase 6 (HDAC6) (human (endogenous in RASFs)) (UniProt Q9UBN7)
Assay: proximity ligation; in situ proximity ligation assay (Duolink kit) in RASFs fixed with 4% paraformaldehyde and permeabilised with 0.1% Triton X-100; two primary antibodies (anti-p97, anti-HDAC6, anti-polyubiquitin K48) overnight at 4°C

By UniProt entry, the sequences of proteins in these tests, tags left out.
UniProt Q9UBN7: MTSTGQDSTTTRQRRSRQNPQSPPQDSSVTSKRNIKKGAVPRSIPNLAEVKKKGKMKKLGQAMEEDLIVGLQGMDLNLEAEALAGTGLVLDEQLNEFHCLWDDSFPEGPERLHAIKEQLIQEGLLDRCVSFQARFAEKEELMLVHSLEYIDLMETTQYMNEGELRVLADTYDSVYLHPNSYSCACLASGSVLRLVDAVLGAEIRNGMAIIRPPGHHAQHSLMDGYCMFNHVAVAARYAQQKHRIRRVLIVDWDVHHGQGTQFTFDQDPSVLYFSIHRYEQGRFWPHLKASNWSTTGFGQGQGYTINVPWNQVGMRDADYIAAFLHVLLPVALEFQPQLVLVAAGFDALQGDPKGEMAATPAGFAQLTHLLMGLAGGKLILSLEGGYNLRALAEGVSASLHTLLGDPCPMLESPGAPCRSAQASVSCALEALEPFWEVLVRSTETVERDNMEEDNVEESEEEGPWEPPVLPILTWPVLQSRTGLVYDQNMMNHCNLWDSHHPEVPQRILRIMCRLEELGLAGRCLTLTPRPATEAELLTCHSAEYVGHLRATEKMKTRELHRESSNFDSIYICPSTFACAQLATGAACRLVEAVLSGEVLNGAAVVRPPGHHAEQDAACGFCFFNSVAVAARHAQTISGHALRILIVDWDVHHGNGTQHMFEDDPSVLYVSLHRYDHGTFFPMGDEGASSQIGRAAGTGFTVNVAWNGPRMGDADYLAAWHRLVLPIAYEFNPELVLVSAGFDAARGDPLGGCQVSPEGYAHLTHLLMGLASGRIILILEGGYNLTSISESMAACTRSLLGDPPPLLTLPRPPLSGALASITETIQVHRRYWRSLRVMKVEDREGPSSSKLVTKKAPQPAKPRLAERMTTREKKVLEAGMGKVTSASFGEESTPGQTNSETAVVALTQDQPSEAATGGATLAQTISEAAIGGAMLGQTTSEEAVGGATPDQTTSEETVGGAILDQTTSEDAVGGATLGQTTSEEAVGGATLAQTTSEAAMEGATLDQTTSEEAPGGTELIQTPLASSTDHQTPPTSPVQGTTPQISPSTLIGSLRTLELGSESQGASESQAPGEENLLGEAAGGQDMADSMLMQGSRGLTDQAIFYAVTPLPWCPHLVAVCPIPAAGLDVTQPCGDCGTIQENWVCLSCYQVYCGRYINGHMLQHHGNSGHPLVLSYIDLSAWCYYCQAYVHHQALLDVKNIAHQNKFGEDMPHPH

- binding: binds
Substance: Valosin containing protein (p97) (from UniProt P55072 1-806)
